Measurements from paper PMC5036795.
No constants are given. Whether binding was seen depends on the method and setting. In cells and extracts the contact can be indirect. A yes stands for co-enrichment or nearness to the bait. Other partners may have been found.

The chains behind the UniProt entries cited, without tags or fusion partners. Where a name states a change or a piece, a line headed by the entry shows the natural chain unless it says otherwise.
UniProt Q7AKP9: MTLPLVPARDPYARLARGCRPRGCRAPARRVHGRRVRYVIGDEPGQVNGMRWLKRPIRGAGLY

B1: ribosomal protein S2 (RpsB), product of SCO5624 (protein, UniProt O31212 1-310)
chain: MAVVTMRELLESGVHFGHQTRRWNPKMKRFIFTERNGIYIIDLLQSLSYIDRAYEFVKETVAHGGTVMFVGTKKQAQEAIAEQATRVGMPYVNQRWLGGMLTNFSTVYKRLQRLKELEQIDFEDVAASGLTKKELLVLSREKAKLEKTLGGIREMSKVPSAVWIVDTKKEHIAVGEARKLNIPVVAILDTNCDPDEVDHKIPGNDDAIRSVTLLTRVIADAVAEGLIARSGAAGGAKGDKAAGEPLAAWERDLLEGEKAEKKDDAEAAEKPAEAPAAEAPAAEAAEAPAAEAAPAEEPAAEAPAADAEQA
B2: putative leucyl aminopeptidase (PepA), product of SCO2179 (enzyme, UniProt Q9S2Q7 1-517)
chain: MTALTLSTAAAPGLRADAIVIGVAKGAGGPSVAPGAEAVDKAYDGRLAAVLETLGASGAEGEVTKLPAPSGFKAPVVVAVGLGAEPEKDAGFDPEALRRAAGAAARALAGAKKAAFALPLAEAADAGVVAEGLLLGAYSFDAYKASAKEAKEAKGAKAKANGNGKAPLAEAALLGGKPRDKAYKAAIERATAVAEELNRARDLVNTPPNDLDPEAFAAVAQAAAKEHGIKVQVLDEKALVKGGYGGILGVGAGSASGPRLVKLSYTSPKAKKSLAFVGKGITYDSGGISLKPAGHNETMKCDMAGAAAVFAAVVAAARLGLEVNVTGWLALAENMPSGSATRPGDVLRMYSGKTVEVLNTDAEGRLVLADALWAASQDEPDAIIDVATLTGAMMLALGSRTYGIMANDDAFRSAVHEAAEESGEPAWPMPLPEHLRKGMDSPTADIANMGERMGGGLVAGLFLREFVGEGITWAHLDIAGPAFNEGGPFGYTPKGGTGTAVRTLVRVAELAAAGELG

These molecules were tested against TrpM-His6 (SCO2038 product, His-tagged TrpM) (Streptomyces coelicolor A3(2)) (UniProt Q7AKP9) (assay: affinity purification with mass spectrometry; His-tag pull-down: TrpM-His6 immobilised on cobalt-containing Dynabeads as bait; prey: S. coelicolor A3(2) protein extract (3 days on MM) pre-cleared on Dynabeads alone; eluate on 15% SDS-PAGE, silver staining; bands present only with the bait identified by nanoLC-ESI-LIT-MS/MS; control: extract of E. coli with non-recombinant pRSETB; only the target purified).

binding, binds:
ribosomal protein S1 (RpsA), product of SCO1998 (from UniProt Q9S2K5 1-502)
B1
B2
